Residue numbers refer to the chain shown, from its start. These are yes or no findings as the source states them, for the method shown. Binding seen in cells or lysates may run through a third protein. Some results given as binding are weak or reduced against the parent protein; the word gives no strength. Sequences can lack the tags named with a protein.
Legend:
Assay in all cases: co-IP; 12xMyc-Met30 variants immunoprecipitated (Met30 IP) from yeast lysate; co-precipitated RGS6H-Cdc48 by western blot; Cdc48 recruitment during cadmium stress
[1] = target: T1, 12xMyc-Met30 C201S (S. cerevisiae) (UniProt P39014)
T1 sequence: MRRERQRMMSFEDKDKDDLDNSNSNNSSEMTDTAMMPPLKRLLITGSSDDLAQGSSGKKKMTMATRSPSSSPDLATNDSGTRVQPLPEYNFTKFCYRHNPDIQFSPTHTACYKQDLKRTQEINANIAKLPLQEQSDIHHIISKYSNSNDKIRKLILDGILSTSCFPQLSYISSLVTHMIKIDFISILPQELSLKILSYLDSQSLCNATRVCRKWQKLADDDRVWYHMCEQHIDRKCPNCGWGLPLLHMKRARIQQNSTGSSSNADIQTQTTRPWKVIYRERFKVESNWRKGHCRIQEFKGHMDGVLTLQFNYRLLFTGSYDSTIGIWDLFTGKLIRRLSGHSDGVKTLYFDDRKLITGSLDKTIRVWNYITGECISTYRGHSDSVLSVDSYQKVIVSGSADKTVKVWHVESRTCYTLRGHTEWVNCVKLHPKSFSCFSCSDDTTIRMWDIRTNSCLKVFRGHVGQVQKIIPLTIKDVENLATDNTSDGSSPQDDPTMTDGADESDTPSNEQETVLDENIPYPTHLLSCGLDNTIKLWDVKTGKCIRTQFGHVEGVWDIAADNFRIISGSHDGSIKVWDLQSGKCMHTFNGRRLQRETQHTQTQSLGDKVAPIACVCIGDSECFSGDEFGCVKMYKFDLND

Sequences of proteins named here, by UniProt entry; tags and fusion partners are left off.
UniProt P25694: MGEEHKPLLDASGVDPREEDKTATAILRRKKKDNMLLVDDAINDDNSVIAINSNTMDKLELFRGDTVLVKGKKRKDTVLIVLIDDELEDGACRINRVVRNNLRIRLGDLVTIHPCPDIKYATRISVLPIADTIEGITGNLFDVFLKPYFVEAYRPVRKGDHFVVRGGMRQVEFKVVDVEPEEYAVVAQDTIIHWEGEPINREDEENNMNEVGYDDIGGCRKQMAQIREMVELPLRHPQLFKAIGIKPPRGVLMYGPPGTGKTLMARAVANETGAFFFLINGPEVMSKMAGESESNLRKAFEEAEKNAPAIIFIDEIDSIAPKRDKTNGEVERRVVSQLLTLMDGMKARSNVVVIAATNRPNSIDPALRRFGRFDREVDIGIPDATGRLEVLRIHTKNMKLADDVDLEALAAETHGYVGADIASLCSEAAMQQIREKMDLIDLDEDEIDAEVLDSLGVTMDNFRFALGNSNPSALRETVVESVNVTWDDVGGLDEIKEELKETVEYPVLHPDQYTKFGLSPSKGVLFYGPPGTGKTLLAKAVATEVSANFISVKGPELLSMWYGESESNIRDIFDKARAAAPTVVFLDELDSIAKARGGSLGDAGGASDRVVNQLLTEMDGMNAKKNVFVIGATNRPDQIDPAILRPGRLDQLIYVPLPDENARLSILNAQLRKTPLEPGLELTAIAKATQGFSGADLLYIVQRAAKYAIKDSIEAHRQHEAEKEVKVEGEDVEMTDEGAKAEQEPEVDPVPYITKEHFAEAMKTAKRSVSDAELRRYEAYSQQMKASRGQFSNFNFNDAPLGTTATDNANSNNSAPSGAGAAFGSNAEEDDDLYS

[2] = target: T2, 12xMyc-Met30 C205S (S. cerevisiae) (UniProt P39014)
T2 sequence: T1 sequence with S201C, C205S

[3] = target: T3, 12xMyc-Met30 C211S (S. cerevisiae) (UniProt P39014)
T3 sequence: T1 sequence with S201C, C211S

[4] = target: T4, 12xMyc-Met30 wild type (S. cerevisiae) (UniProt P39014)
T4 sequence: T1 sequence with S201C

- binding [1]: binds
- binding [2]: binds
- binding [3]: binds
- binding [4]: binds
Substance: RGS6H-Cdc48 (from UniProt P25694 1-835) (enzyme)
